Chains of the proteins cited; added tags and fusions are not shown.
UniProt Q8IWZ3: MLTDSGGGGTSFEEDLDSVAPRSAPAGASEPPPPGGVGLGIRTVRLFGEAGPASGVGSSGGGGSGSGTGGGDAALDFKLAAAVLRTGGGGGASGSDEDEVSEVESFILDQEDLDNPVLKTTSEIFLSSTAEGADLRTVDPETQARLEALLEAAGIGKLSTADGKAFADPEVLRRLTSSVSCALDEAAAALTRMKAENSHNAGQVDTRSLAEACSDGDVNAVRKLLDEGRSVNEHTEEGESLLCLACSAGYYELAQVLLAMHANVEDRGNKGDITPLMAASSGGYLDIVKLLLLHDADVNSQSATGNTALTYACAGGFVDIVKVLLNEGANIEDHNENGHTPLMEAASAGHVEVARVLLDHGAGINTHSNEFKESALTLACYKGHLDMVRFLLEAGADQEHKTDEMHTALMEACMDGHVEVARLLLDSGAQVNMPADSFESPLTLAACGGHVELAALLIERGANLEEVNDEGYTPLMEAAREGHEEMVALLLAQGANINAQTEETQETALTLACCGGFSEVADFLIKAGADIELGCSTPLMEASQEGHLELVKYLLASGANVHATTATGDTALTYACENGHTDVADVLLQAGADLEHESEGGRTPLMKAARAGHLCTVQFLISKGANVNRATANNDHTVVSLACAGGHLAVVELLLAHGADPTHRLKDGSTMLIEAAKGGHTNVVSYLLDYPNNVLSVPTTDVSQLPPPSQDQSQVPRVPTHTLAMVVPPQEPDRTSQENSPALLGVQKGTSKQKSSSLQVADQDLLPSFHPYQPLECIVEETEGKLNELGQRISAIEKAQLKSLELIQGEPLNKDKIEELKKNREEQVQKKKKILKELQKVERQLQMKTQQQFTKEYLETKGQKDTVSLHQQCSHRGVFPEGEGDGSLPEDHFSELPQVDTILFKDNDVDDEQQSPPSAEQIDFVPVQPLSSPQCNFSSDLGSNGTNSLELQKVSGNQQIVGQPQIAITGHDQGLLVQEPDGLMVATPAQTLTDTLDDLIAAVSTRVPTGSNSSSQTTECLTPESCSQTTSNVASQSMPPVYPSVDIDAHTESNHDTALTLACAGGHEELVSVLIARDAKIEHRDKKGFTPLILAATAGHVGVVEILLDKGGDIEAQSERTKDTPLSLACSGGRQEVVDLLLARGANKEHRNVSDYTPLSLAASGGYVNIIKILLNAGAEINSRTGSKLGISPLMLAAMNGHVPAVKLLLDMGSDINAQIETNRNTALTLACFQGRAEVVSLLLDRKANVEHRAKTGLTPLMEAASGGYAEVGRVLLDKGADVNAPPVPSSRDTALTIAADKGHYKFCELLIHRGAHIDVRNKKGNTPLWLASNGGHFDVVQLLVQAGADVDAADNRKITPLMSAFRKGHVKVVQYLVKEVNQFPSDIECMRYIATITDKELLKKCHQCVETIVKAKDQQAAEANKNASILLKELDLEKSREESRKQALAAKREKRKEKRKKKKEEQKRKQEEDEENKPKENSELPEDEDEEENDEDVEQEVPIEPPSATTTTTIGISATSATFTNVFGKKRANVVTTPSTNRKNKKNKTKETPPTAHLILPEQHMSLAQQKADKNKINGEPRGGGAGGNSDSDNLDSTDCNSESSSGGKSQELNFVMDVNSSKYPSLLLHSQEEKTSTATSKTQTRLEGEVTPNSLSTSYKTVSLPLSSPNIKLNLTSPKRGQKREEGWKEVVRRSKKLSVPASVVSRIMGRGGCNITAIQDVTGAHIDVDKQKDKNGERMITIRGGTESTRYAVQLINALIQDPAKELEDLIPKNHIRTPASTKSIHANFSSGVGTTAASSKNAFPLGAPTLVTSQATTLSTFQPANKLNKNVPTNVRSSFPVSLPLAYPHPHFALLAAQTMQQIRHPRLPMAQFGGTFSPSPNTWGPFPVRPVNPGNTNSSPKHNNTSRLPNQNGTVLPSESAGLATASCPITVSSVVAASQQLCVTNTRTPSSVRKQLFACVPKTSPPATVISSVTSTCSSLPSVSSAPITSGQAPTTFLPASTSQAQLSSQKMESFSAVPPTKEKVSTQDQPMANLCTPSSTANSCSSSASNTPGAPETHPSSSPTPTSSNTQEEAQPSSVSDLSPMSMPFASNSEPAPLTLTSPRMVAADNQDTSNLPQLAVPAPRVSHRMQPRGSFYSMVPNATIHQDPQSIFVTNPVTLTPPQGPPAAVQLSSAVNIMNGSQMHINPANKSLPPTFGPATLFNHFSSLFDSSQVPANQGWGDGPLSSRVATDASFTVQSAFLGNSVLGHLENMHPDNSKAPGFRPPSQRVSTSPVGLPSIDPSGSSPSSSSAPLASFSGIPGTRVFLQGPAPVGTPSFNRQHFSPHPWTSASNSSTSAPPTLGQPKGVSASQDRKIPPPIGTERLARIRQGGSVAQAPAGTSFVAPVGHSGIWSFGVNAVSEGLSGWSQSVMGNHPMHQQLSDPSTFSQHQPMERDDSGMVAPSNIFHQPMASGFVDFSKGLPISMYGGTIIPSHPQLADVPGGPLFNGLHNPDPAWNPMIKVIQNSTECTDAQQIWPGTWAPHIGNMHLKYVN

According to article PMC8895442:

Target: Flag-PTEN (phosphatase and tensin homolog deleted on chromosome ten) (UniProt P60484)
Test: affinity purification with mass spectrometry; 293T cells transfected with Flag-PTEN; PTEN immunoprecipitated with anti-PTEN antibody and protein A+G agarose at 4 °C; LC-MS/MS; IgG control; n = 1

- binding: binds
Substance: ankyrin repeat and KH domain containing 1 (ANKHD1) (from UniProt Q8IWZ3 1-2542)

Results are given in words; binding and its absence hold for the method and conditions named. In cells and extracts the contact can be indirect. A yes stands for co-enrichment or nearness to the bait. Other partners may have been found.
